Test results: publication doi:10.1101/564625
No constants are given. Whether binding was seen depends on the method and setting. Binding seen in cells or lysates may run through a third protein. These calls come from enrichment with a bait or labelling near it, and not all partners need be listed. A no says only that the protein was not detected with the bait.

The chains behind the UniProt entries cited, without tags or fusion partners.
UniProt P05412: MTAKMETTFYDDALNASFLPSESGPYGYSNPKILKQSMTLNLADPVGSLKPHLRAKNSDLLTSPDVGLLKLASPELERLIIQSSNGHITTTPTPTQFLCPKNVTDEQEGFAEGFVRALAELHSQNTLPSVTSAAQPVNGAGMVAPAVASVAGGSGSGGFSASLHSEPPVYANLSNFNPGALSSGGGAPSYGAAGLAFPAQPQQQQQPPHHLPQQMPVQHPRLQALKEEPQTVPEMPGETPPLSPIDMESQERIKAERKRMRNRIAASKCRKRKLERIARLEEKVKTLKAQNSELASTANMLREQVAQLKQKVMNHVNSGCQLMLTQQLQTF
UniProt P09874: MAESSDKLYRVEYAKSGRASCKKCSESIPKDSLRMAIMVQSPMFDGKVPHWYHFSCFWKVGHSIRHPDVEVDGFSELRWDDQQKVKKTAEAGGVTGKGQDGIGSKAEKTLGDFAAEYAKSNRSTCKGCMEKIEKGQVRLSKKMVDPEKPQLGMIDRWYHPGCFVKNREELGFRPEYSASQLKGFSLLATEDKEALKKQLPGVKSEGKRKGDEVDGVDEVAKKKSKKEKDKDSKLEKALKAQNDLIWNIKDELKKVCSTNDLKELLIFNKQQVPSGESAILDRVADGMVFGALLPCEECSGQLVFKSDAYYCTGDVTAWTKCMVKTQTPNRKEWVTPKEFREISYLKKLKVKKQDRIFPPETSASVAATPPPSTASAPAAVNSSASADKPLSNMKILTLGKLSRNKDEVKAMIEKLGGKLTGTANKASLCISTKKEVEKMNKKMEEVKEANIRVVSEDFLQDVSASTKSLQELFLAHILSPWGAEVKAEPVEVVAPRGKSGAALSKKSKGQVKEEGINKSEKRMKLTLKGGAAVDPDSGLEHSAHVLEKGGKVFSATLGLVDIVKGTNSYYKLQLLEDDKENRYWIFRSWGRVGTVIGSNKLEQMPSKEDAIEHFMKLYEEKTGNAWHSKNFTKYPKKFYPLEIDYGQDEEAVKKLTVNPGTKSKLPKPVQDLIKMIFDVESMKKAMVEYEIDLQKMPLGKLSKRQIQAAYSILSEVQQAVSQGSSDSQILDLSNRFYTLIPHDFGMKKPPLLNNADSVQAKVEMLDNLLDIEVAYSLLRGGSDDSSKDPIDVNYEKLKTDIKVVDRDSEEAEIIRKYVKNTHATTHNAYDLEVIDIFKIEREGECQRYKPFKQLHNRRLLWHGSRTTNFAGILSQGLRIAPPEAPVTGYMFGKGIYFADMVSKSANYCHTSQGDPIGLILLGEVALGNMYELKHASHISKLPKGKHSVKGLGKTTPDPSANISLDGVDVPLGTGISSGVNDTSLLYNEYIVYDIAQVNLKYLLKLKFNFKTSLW
UniProt P35637: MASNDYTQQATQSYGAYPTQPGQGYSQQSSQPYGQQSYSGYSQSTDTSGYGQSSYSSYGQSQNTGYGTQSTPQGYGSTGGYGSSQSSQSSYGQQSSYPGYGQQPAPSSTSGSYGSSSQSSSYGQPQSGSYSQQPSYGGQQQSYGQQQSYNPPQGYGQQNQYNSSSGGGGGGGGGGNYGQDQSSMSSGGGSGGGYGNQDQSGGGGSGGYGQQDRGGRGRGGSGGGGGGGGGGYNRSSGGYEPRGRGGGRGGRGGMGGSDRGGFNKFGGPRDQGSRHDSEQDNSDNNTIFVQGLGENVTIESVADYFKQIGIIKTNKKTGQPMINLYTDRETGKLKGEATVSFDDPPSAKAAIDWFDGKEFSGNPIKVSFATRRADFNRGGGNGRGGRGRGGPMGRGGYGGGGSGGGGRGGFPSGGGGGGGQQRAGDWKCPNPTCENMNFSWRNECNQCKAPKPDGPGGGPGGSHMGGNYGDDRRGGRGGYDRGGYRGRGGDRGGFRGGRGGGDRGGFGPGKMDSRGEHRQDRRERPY
UniProt Q9H7S9: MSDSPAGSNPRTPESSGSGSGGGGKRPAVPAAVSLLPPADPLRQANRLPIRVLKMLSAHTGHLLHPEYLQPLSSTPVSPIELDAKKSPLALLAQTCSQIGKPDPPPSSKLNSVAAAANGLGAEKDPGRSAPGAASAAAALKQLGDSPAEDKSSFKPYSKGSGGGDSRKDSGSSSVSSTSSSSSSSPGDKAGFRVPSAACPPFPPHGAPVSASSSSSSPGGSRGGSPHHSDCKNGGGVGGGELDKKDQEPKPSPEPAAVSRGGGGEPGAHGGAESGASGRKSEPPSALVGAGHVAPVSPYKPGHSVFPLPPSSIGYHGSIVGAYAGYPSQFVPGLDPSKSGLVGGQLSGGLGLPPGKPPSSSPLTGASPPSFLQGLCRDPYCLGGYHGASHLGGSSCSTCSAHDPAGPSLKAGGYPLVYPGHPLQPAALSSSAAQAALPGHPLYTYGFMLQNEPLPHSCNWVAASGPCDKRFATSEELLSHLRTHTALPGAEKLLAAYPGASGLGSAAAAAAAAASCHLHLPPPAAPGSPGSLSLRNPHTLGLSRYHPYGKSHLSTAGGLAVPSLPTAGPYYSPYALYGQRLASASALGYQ
UniProt P17844: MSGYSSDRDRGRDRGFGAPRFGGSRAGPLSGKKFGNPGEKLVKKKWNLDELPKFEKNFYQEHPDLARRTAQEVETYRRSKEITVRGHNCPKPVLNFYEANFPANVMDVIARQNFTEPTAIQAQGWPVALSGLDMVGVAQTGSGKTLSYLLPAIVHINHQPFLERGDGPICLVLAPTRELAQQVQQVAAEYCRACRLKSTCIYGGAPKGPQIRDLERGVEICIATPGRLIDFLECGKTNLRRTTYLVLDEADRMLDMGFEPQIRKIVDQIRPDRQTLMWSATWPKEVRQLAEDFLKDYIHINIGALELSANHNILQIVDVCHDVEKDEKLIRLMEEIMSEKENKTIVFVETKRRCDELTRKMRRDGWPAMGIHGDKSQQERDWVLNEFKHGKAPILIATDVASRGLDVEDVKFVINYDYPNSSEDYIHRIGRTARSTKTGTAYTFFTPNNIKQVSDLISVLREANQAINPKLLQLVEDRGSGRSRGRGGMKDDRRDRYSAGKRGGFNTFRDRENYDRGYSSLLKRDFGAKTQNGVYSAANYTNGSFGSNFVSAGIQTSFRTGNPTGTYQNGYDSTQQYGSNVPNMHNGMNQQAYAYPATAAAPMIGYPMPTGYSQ
UniProt P35222: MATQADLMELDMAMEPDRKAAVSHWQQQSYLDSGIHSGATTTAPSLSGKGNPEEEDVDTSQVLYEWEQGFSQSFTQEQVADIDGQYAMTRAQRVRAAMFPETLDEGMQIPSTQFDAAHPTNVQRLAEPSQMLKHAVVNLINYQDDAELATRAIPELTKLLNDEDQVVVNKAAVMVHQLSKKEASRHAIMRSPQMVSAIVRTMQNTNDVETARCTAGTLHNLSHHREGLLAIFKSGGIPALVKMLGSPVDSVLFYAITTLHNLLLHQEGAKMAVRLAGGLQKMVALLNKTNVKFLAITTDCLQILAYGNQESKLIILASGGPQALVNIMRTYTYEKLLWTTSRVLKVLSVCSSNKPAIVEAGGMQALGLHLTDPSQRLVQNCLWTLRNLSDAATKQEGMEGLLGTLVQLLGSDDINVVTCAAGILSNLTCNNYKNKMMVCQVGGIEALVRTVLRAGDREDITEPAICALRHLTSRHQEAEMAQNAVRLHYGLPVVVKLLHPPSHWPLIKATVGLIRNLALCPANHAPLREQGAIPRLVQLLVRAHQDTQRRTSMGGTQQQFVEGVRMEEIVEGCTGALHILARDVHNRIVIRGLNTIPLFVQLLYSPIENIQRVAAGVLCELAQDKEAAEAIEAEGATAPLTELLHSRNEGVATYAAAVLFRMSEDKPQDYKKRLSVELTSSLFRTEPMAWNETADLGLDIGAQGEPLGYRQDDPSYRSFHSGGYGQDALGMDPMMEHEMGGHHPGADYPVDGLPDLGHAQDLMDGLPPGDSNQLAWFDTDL
UniProt P46937: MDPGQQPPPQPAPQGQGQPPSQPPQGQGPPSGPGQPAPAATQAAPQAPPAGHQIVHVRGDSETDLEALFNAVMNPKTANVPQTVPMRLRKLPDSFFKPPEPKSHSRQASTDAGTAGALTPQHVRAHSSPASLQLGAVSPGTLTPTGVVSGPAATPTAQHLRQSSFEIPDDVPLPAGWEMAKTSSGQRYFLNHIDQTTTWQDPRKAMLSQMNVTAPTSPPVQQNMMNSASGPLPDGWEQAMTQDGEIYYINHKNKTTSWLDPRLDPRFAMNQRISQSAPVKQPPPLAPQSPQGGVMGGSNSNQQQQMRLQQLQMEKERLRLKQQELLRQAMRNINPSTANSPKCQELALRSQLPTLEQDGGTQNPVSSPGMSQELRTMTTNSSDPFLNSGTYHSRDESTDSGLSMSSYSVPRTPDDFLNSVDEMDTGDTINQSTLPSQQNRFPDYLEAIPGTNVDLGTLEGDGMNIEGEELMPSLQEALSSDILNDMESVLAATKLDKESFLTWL

T1: BirA-FOXB2 (human) (UniProt Q5VYV0)
T1 sequence: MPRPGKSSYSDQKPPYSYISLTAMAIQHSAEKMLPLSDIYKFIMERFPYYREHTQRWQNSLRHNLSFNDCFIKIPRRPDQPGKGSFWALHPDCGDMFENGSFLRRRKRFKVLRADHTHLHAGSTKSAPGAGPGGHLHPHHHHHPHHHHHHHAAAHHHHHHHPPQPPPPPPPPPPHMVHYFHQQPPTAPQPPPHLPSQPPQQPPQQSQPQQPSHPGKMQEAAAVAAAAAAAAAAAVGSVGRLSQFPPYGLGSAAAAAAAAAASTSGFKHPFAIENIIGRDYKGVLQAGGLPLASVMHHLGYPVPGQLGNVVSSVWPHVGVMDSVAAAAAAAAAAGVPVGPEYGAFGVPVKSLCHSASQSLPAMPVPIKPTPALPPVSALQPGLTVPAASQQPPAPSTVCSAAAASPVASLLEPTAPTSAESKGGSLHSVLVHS


Each molecule was assayed against T1, BirA-FOXB2 (human) (assay: proximity labelling).

Row | binding | Molecule
1 | binds | hnRNP K (from UniProt P61978 1-463)
2 | binds | JUN (from UniProt P05412 1-331)
3 | binds | PARP1 (from UniProt P09874 1-1014)
4 | binds | FUS (from UniProt P35637 1-526)
5 | binds | ZNF703 (from UniProt Q9H7S9 1-590)
6 | binds | DDX5 (from UniProt P17844 1-614)
7 | no binding | endogenous β-catenin (293T) (from UniProt P35222 1-781)
8 | binds | YAP1 (from UniProt P46937 1-504)
9 | binds | NONO (protein, UniProt Q15233 1-471) MQSNKTFNLEKQNHTPRKHHQHHHQQQHHQQQQQQPPPPPIPANGQQASSQNEGLTIDLKNFRKPGEKTFTQRSRLFVGNLPPDITEEEMRKLFEKYGKAGEVFIHKDKGFGFIRLETRTLAEIAKVELDNMPLRGKQLRVRFACHSASLTVRNLPQYVSNELLEEAFSVFGQVERAVVIVDDRGRPSGKGIVEFSGKPAARKALDRCSEGSFLLTTFPRPVTVEPMDQLDDEEGLPEKLVIKNQQFHKEREQPPRFAQPGSFEYEYAMRWKALIEMEKQQQDQVDRNIKEAREKLEMEMEAARHEHQVMLMRQDLMRRQEELRRMEELHNQEVQKRKQLELRQEEERRRREEEMRRQQEEMMRRQQEGFKGTFPDAREQEIRMGQMAMGGAMGINNRGAMPPAPVPAGTPAPPGPATMMPDGTLGLTPPTTERFGQAATMEGIGAIGGTPPAFNRAAPGAEFAPNKRRRY
